# Results reported in patent publication US3985884A, “Complement inhibitors” (American Cyanamid Company, priority 1975, dated 1976).
# Amino acid sequences for entries named in this document (tags omitted). A change or cut given only in a name is not applied to a line headed by its entry.
# UniProt P09871: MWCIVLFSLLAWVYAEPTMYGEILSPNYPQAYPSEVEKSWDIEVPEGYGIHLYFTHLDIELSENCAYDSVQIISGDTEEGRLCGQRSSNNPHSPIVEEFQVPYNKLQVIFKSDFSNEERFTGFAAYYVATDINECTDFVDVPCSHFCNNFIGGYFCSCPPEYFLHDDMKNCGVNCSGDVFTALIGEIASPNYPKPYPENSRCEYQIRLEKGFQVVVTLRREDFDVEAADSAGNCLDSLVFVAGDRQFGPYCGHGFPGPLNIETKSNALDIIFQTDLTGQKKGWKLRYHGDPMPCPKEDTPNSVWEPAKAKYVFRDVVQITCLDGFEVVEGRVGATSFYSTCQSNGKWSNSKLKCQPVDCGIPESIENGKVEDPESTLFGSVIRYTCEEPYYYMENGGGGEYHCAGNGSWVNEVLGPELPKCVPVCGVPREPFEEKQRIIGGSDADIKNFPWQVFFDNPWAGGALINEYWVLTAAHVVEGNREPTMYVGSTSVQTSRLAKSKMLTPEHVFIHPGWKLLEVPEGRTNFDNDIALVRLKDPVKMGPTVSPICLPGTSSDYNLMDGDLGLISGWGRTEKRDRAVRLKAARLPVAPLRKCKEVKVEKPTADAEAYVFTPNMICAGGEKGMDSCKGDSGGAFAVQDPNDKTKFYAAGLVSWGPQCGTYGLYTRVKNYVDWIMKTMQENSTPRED
# Structures can show the parent of a compound that is named as a salt. For at least one compound, name, drawing or mass did not settle the structure.
# Key:
# activated human C1 = activated human C1 (Homo sapiens, UniProt P09871); test: Test, Code 026 (C1 inhibitor); format: biochemical; design: key: +4: 4=Activity 4 wells, a serial dilution assay; higher well number indicates higher activity. The serial dilutions are two-fold; settings: serial two-fold dilution assay; protection of human C2 from C1 and C4; higher well number = higher activity
# [1] = tested on: late components of human complement (C3-C9); test: Test, Code 035 (C3-C9 inhibitor); format: biochemical; settings: serial two-fold dilution assay; protection of EAC 142 from lysis by human C3-C9
smiles,measurement,setting,value
"O=C(Nc1ccc(-n2nc3ccc4cc(S(=O)(=O)O)cc(O)c4c3n2)c(S(=O)(=O)O)c1)Nc1ccc(-n2nc3ccc4cc(S(=O)(=O)O)cc(O)c4c3n2)c(S(=O)(=O)O)c1 [3,3'-Ureylenebis[6-(9-hydroxy-7-sulfo-2H-naphtho[1,2-d]triazol-2-yl)benzenesulfonic acid] tetrasodium salt]","026 (C1 inhibitor), In Vitro",activated human C1,+4
same,"035 (C3-C9 inhibitor), In Vitro",[1],+1 wells
